# Data published in publication PMC7614612.
# Protein sequences, listed by entry. Tags and fused reporters are not part of them. Lines headed by an entry give the natural chain unless they say otherwise; changes in a name come on top.
# UniProt Q9HW00: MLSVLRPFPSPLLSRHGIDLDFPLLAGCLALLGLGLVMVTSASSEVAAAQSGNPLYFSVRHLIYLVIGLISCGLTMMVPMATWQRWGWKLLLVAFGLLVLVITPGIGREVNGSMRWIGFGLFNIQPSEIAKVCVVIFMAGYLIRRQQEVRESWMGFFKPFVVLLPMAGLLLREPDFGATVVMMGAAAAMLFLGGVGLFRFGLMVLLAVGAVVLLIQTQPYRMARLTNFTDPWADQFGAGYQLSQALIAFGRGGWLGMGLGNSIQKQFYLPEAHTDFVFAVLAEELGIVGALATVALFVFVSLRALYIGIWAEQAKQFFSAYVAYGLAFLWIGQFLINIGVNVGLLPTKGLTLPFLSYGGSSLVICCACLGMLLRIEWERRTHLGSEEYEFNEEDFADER
# UniProt P06136: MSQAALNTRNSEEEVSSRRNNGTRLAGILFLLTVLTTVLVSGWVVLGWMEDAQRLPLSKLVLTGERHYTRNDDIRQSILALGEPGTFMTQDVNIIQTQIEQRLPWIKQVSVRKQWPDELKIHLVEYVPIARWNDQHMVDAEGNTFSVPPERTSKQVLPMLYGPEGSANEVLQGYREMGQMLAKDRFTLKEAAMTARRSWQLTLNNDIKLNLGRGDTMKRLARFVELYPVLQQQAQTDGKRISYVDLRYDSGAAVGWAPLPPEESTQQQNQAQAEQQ
# UniProt G3XD46: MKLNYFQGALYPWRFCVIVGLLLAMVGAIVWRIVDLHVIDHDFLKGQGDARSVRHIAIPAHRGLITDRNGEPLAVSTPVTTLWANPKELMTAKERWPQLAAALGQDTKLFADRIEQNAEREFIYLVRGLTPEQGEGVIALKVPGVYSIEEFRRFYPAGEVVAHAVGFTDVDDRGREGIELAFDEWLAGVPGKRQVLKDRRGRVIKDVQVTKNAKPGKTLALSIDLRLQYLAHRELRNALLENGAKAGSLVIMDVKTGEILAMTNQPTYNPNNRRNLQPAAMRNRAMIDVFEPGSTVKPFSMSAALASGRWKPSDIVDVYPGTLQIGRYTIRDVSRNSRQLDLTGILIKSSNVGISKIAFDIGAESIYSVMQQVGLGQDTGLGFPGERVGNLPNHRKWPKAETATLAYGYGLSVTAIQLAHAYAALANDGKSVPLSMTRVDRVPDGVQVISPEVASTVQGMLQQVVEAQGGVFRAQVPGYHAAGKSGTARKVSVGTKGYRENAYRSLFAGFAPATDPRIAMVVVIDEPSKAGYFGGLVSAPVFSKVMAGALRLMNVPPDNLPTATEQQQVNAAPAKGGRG
# These are yes or no findings as the source states them, for the method shown. In cells and extracts the contact can be indirect. Binding can be weak; no strength is given.
# Columns and labels:
# [1] = target: T1, E. coli TwinStrep-FtsK 1-222 (E. coli) (UniProt P46889); assay: co-purification (StrepTrap, then HisTrap, then SEC); FtsQ-His6 and TwinStrep-FtsK 1-222 co-expressed in Sf9, membranes solubilised in 1% GDN, StrepTrap-HP then HisTrap then Superose 6 Increase in 50 mM Tris, 100 mM NaCl, 0.006% GDN, 10% glycerol, pH 8.0, 4 C; SDS-PAGE of SEC fractions
# T1 sequence: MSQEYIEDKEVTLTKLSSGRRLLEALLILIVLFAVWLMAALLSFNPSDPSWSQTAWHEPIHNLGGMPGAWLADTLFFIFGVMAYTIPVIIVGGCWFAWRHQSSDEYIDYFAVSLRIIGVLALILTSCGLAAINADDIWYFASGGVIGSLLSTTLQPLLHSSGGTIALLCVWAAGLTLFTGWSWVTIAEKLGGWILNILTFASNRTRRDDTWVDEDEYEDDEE
# [2] = target: Pseudomonas aeruginosa FtsW (Pseudomonas aeruginosa) (UniProt Q9HW00); assay: cryo-EM structure; PaFtsWIQBL co-expressed in E. coli and co-purified, in LMNG micelle, 20 mM HEPES, 300 mM NaCl, pH 7.0, 0.005% LMNG; single-particle reconstruction at 3.7 A overall; both purified
binding [1],binding [2],Substance
binds,,E. coli FtsQ-His6 (from UniProt P06136)
,binds,Pseudomonas aeruginosa FtsI (from UniProt G3XD46 1-579) (enzyme)
